Data as given in PubChem BioAssay AID1259308 (NCATS, 2017)
The whole screen tested about 59,000 reagents; shown is a part drawn at random. About 1,510 of all reagents (2.6%) count as active. 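Calls use total luciferase alone and ignore viability, so some active siRNAs may act by altering cell number.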

- Aim: 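Genes whose loss raises luciferase production in HEK293 cells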 (primary screen)
- Cells: human HEK293 embryonic kidney cells stably expressing firefly luciferase (HEK-CMV-Luc2-Hygro)
- Knock-down reagent: single siRNA against human genes, 0.8 pmol siRNA per well
- Duration: 72 h
- Detection: 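Luciferase light (ONE-Glo) measured on one replicate plate set and viability (CellTiter-Glo) on the other, scaled to a negative control siRNA, with robust z-scores and luciferase per cell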
- Scale: total luciferase, z-score and total luciferase, % of control: higher = more reporter protein produced; luciferase per cell, z-score: higher = more reporter output per viable cell; viable cells, % of control: higher = more viable cells
- Active means: 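Active when the median/MAD z-score for overall luciferase is greater than 3; a gene was taken forward for validation with new siRNAs if at least two of its three siRNAs passed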
- Calls: active = raised luciferase; inactive = no rise

The first 5 records as a preview:
target gene | PubChem SID | total luciferase, z-score | total luciferase, % of control | luciferase per cell, z-score | viable cells, % of control | activity call
MAGEB10 (MAGE family member B10) | SID160757700 | 0.568 | 93.2 | 2.68 | 51.5 | inactive
MAGEB10 (MAGE family member B10) | SID160757701 | 0.569 | 93.2 | 0.526 | 90.7 | inactive
MAGEB10 (MAGE family member B10) | SID160757703 | -2.13 | 39.6 | -1.08 | 58.9 | inactive
RPL34P34 (ribosomal protein L34 pseudogene 34) | SID160764669 | -2.72 | 27.8 | -1.29 | 43.7 | inactive
RPL34P34 (ribosomal protein L34 pseudogene 34) | SID160764670 | -2.97 | 22.8 | -2.09 | 44.1 | inactive

Results, from the start:
target gene | PubChem SID | total luciferase, z-score | total luciferase, % of control | luciferase per cell, z-score | viable cells, % of control | activity call
MAGEB10 (MAGE family member B10) | SID160757700 | 0.568 | 93.2 | 2.68 | 51.5 | inactive
MAGEB10 (MAGE family member B10) | SID160757701 | 0.569 | 93.2 | 0.526 | 90.7 | inactive
MAGEB10 (MAGE family member B10) | SID160757703 | -2.13 | 39.6 | -1.08 | 58.9 | inactive
RPL34P34 (ribosomal protein L34 pseudogene 34) | SID160764669 | -2.72 | 27.8 | -1.29 | 43.7 | inactive
RPL34P34 (ribosomal protein L34 pseudogene 34) | SID160764670 | -2.97 | 22.8 | -2.09 | 44.1 | inactive
RPL34P34 (ribosomal protein L34 pseudogene 34) | SID160764671 | -2.72 | 27.9 | -2.47 | 59.7 | inactive
CCDC60 (coiled-coil domain containing 60) | SID160759801 | -0.45 | 72.9 | 0.112 | 79.1 | inactive
CCDC60 (coiled-coil domain containing 60) | SID160759802 | -0.475 | 72.4 | -0.483 | 91.9 | inactive
CCDC60 (coiled-coil domain containing 60) | SID160759803 | 0.062 | 83.1 | 0.664 | 78 | inactive
STIM1 (stromal interaction molecule 1) | SID160717468 | 0.628 | 94.4 | 0.778 | 85.9 | inactive
STIM1 (stromal interaction molecule 1) | SID160717469 | -0.281 | 76.3 | -0.647 | 101 | inactive
STIM1 (stromal interaction molecule 1) | SID160717470 | 0.446 | 90.8 | -0.153 | 106 | inactive
RNF122 (ring finger protein 122) | SID160749590 | 0.495 | 91.7 | 0.319 | 94.3 | inactive
RNF122 (ring finger protein 122) | SID160749591 | -1.71 | 47.8 | -1.9 | 88.1 | inactive
RNF122 (ring finger protein 122) | SID160749592 | 2.95 | 141 | 2.08 | 90.8 | inactive
MAVS (mitochondrial antiviral signaling protein) | SID160746131 | -2.11 | 39.9 | -1.37 | 64.1 | inactive
MAVS (mitochondrial antiviral signaling protein) | SID160746132 | 1.89 | 119 | 0.957 | 104 | inactive
MAVS (mitochondrial antiviral signaling protein) | SID160746134 | -1.12 | 59.6 | -0.948 | 85.5 | inactive
USP21 (ubiquitin specific peptidase 21) | SID160730953 | -0.334 | 75.2 | -0.0259 | 84.7 | inactive
USP21 (ubiquitin specific peptidase 21) | SID160738239 | -0.726 | 67.5 | -0.747 | 91.8 | inactive
USP21 (ubiquitin specific peptidase 21) | SID160738240 | -0.606 | 69.8 | -0.816 | 96.7 | inactive
USP50 (ubiquitin specific peptidase 50) | SID160765236 | -1.02 | 61.5 | -0.086 | 70.3 | inactive
USP50 (ubiquitin specific peptidase 50) | SID160765237 | -2.04 | 41.3 | -1.32 | 65.3 | inactive
USP50 (ubiquitin specific peptidase 50) | SID160765238 | 0.187 | 85.6 | 0.43 | 85.4 | inactive
MAGOH (mago homolog, exon junction complex subunit) | SID160733367 | 0.384 | 89.5 | 1.28 | 71.4 | inactive
MAGOH (mago homolog, exon junction complex subunit) | SID160776922 | 2.02 | 122 | 4.29 | 44 | inactive
MAGOH (mago homolog, exon junction complex subunit) | SID160776923 | 0.425 | 90.3 | 1.47 | 68.5 | inactive
MAPK8IP1 (mitogen-activated protein kinase 8 interacting protein 1) | SID160722314 | -1.21 | 57.8 | -0.234 | 68.7 | inactive
MAPK8IP1 (mitogen-activated protein kinase 8 interacting protein 1) | SID160722315 | -0.735 | 67.3 | -0.408 | 83.7 | inactive
MAPK8IP1 (mitogen-activated protein kinase 8 interacting protein 1) | SID160722316 | 0.693 | 95.7 | 0.818 | 86.2 | inactive
C18orf54 (chromosome 18 open reading frame 54) | SID160759950 | 0.0706 | 83.3 | 0.274 | 86.6 | inactive
C18orf54 (chromosome 18 open reading frame 54) | SID160759951 | -0.557 | 70.8 | 0.241 | 74.3 | inactive
C18orf54 (chromosome 18 open reading frame 54) | SID160759952 | -0.146 | 79 | 0.487 | 77.6 | inactive
PRORP (protein only RNase P catalytic subunit) | SID160722818 | -0.0188 | 81.5 | -0.341 | 99.6 | inactive
PRORP (protein only RNase P catalytic subunit) | SID160722819 | 0.82 | 98.2 | 2.09 | 63.3 | inactive
PRORP (protein only RNase P catalytic subunit) | SID160722820 | 0.778 | 97.4 | -0.279 | 117 | inactive
TGFA (transforming growth factor alpha) | SID160717980 | 0.176 | 85.4 | 0.0949 | 93.1 | inactive
TGFA (transforming growth factor alpha) | SID160717981 | 0.537 | 92.6 | 0.102 | 101 | inactive
TGFA (transforming growth factor alpha) | SID160717982 | 0.429 | 90.4 | 0.776 | 82.4 | inactive
D2HGDH (D-2-hydroxyglutarate dehydrogenase) | SID160726633 | -0.215 | 77.6 | 0.119 | 84.1 | inactive
D2HGDH (D-2-hydroxyglutarate dehydrogenase) | SID160771670 | -0.796 | 66.1 | -0.698 | 88.7 | inactive
D2HGDH (D-2-hydroxyglutarate dehydrogenase) | SID160771671 | -2.26 | 37 | -1.88 | 67.8 | inactive
AGGF1 (angiogenic factor with G-patch and FHA domains 1) | SID160742960 | -1.19 | 58.2 | -0.878 | 82 | inactive
AGGF1 (angiogenic factor with G-patch and FHA domains 1) | SID160742962 | -0.151 | 78.9 | -0.374 | 97.3 | inactive
AGGF1 (angiogenic factor with G-patch and FHA domains 1) | SID160742963 | -1.35 | 55.1 | -0.423 | 68.8 | inactive
TMEM187 (transmembrane protein 187) | SID160719782 | 0.268 | 87.2 | -0.169 | 102 | inactive
TMEM187 (transmembrane protein 187) | SID160719783 | 0.531 | 92.4 | 0.563 | 89.1 | inactive
TMEM187 (transmembrane protein 187) | SID160719784 | -0.719 | 67.6 | -0.467 | 85.4 | inactive
VPS50 (VPS50 subunit of EARP/GARPII complex) | SID160743890 | -0.0201 | 81.5 | -0.148 | 94.7 | inactive
VPS50 (VPS50 subunit of EARP/GARPII complex) | SID160743891 | 2.82 | 138 | 1.57 | 102 | inactive
VPS50 (VPS50 subunit of EARP/GARPII complex) | SID160743893 | 2.7 | 136 | 1.1 | 113 | inactive
MAGEB18 (MAGE family member B18) | SID160763864 | -0.00742 | 81.7 | -0.787 | 112 | inactive
MAGEB18 (MAGE family member B18) | SID160763866 | -0.698 | 68 | -0.396 | 84.3 | inactive
MAGEB18 (MAGE family member B18) | SID160763867 | -1.37 | 54.7 | -1.11 | 81.9 | inactive
BCL10-AS1 (BCL10 antisense RNA 1) | SID160725958 | 0.306 | 88 | -0.088 | 101 | inactive
BCL10-AS1 (BCL10 antisense RNA 1) | SID160725959 | -0.429 | 73.4 | -0.567 | 95.2 | inactive
BCL10-AS1 (BCL10 antisense RNA 1) | SID160769958 | 0.619 | 94.2 | 1.68 | 67.6 | inactive
